Assay results: PMC6146376 (Chemical Communications (Cambridge, England), 2018)

Experiment: general procedure: Fmoc solid-phase peptide synthesis; 2-chlorotrityl (2CT) resin preloaded with Ala (0.6 mmol/g); HATU/DIPEA
Conditions: whole synthesis, overall, scale of the general procedure 0.1 mmol
Oct-TriA1 (5-D-Agl, 9-Agl) showed an isolated yield of 6%.
Work on “PEPTIDE1{[Oct].[dV].[D-Dab].G.[dS].[D-Sac].S.[Dab].[D-Dab].[Sac].E.V.[D-aIle].A}$$$$V2.0” yielded an isolated yield of 4%.
“PEPTIDE1{[Oct].[dV].[D-Dab].G.[dS].[dC].S.[Dab].[D-Dab].C.E.V.[D-aIle].A}$$$$V2.0” gave an isolated yield of 18%.
For “PEPTIDE1{[Oct].[dV].[D-Dab].G.[dS].[dC].S.[Dab].[D-Dab].C.E.V.[D-aIle].A}$PEPTIDE1,PEPTIDE1,6:R3-10:R3$$$V2.0”, the isolated yield was 6%.
Work on “PEPTIDE1{[Oct].[dV].[D-Dab].G.[dS].[dC].S.[Dab].[D-Dab].C.E.V.[D-aIle].A}|CHEM1{[Biphenyl44]}$PEPTIDE1,CHEM1,6:R3-1:R1|PEPTIDE1,CHEM1,10:R3-1:R2$$$V2.0” yielded an isolated yield of 5%.
“PEPTIDE1{[Oct].[dV].[D-Dab].G.[dS].[dC].S.[Dab].[D-Dab].C.E.V.[D-aIle].A}|CHEM1{[mXyl]}$PEPTIDE1,CHEM1,6:R3-1:R1|PEPTIDE1,CHEM1,10:R3-1:R2$$$V2.0” gave an isolated yield of 50%.
“PEPTIDE1{[Oct].[dV].[D-Dab].G.[dS].[dC].S.[Dab].[D-Dab].C.E.V.[D-aIle].A}|CHEM1{[oXyl]}$PEPTIDE1,CHEM1,6:R3-1:R1|PEPTIDE1,CHEM1,10:R3-1:R2$$$V2.0” gave an isolated yield of 14%.
In the case of “PEPTIDE1{[Oct].[dV].[D-Dab].G.[dS].[dC].S.[Dab].[D-Dab].C.E.V.[D-aIle].A}|CHEM1{[pXyl]}$PEPTIDE1,CHEM1,6:R3-1:R1|PEPTIDE1,CHEM1,10:R3-1:R2$$$V2.0”, the isolated yield is reported as 23%.
Work on “PEPTIDE1{[Oct].[dV].[D-Dab].G.[dS].[dW].S.[Dab].[D-Dab].F.E.V.[D-aIle].A}$$$$V2.0” yielded an isolated yield of 11%.

HELM strings list residues between dots; [ac] is acetyl, [am] amide, other brackets name non-standard units.
